Source: PubChem BioAssay AID330 (DTP/NCI, 2004)
The list shows only some results of the screen, not a fair sample: it gathers tests that were run many times, whatever their T/C, doses with no T/C, and many T/C values between a quarter and a half above the control. Other doses and runs of a compound stand elsewhere. T/C is the treated group as % of the vehicle group. Some doses have a count of surviving animals in place of a T/C: the source files T/C as zero there, which appears to mark a toxic dose or a test without result, not a measured value. Some doses without a T/C left all or most animals alive at the check, yet need not have been tolerated: survival well below the control is almost never listed, so the zero probably covers shortened survival too. Counts of survivors are from the toxicity check (mostly the fifth day) where no day follows; animals may have died later. Schedule codes are those of the source, read here as Q, the interval in days (D) or hours (H), X, the number of doses. For survival time, the PubChem record calls one and a half times the control and up active, and a quarter to a half above the control has no call in these data; cut-offs in other NCI protocols can differ. Some entries hold several experiments; the values are given in rising order. Some T/C values are followed by the survivors on the day toxicity was checked, most often the fifth; without a count, all were alive then.

Test system: P388 leukemia ip, CD2F1 mice, survival T/C
Experiment: NCI In Vivo Anticancer Drug Screen. Data for tumor model P388 Leukemia (intraperitoneal) in CD2F1 (CDF1) mice
Conditions: T/C endpoint: median survival time, higher T/C = longer survival
[1] = dose: 200.0 mg/kg/injection, schedule: Q01DX005 (ip), vehicle: saline with Tween-80

## O=C(O)C(Cc1ccccc1)N1C(=O)C=CC1=O (centres undefined)
dose: 80.0 mg/kg/injection, schedule: Q01DX009 (ip), vehicle: saline with Tween-80
  survivor count: 2 of 6
dose: 160.0 mg/kg/injection, schedule: Q01DX009 (ip), vehicle: saline with Tween-80
  survivor count: 0 of 6
dose: 200.0 mg/kg/injection, schedule: Q01DX009 (ip), vehicle: Klucel (hydroxypropylcellulose) (HPC)
  survivor count: 0 of 6

## Cc1ccc(-c2cnc3c(n2)c(=O)[nH]c(=O)n3C)cc1
dose: 400.0 mg/kg/injection, schedule: Q04DX003 (ip), vehicle: Klucel (hydroxypropylcellulose) (HPC)
  survivor count: 2 of 6

## Cc1ccc2nc(C)cc(N=[N+]=[N-])c2c1
dose: 240.0 mg/kg/injection, schedule: Q01DX005 (ip), vehicle: saline with Tween-80
  survivor count: 1 of 6

## NSC(=S)NCc1ccco1
dose: 400.0 mg/kg/injection, schedule: Q01DX005 (ip), vehicle: Klucel (hydroxypropylcellulose) (HPC)
  survivor count: 0 of 5

## O=c1[nH]c2cc([N+](=O)[O-])ccc2nc1/C=C(\O)c1cccc([N+](=O)[O-])c1
dose: 120.0 mg/kg/injection, schedule: Q01DX005 (ip), vehicle: Klucel + Tween-80
  survivor count: 6 of 6

## N#Cc1ccc(NN=NCCSCCO)cc1
dose: 200.0 mg/kg/injection, schedule: Q01DX009 (ip), vehicle: distilled water + alcohol
  T/C: 138 % of control [5 of 6 alive]

## COc1cc(C2c3cc4c(cc3[C@@H](OC3OC5CO[C@@H](C)OC5C(O)C3O)[C@H]3COC(=O)C23)OCO4)cc(OC)c1OC (some centres undefined)
dose: 4.0 mg/kg/injection, schedule: Q01DX005 (ip), vehicle: saline
  T/C: 144 % of control
dose: 8.0 mg/kg/injection, schedule: Q01DX005 (ip), vehicle: saline
  T/C: 130 and 144 % of control
dose: 16.0 mg/kg/injection, schedule: Q01DX005 (ip), vehicle: saline
  T/C: 135 % of control
dose: 32.0 mg/kg/injection, schedule: Q01DX005 (ip), vehicle: saline
  T/C: 148 % of control

## CN(C)N=Nc1ccc(S(=O)(=O)Nc2ncccn2)cc1
dose: 17.5 mg/kg/injection, schedule: Q01DX009 (ip), vehicle: saline with Tween-80
  T/C: 132 % of control
dose: 50.0 mg/kg/injection, schedule: Q04DX003 (ip), vehicle: saline with Tween-80
  T/C: 146 % of control

## COC(=O)CCCCCCCCCCN(CCCl)CCCl
dose: 1.56 mg/kg/injection, schedule: Q01DX009 (ip), vehicle: saline
  T/C: 130 % of control
dose: 3.12 mg/kg/injection, schedule: Q01DX009 (ip), vehicle: saline
  T/C: 147 % of control
dose: 25.0 mg/kg/injection, schedule: Q01DX009 (ip), vehicle: saline
  survivor count: 5 of 6
dose: 50.0 mg/kg/injection, schedule: Q01DX009 (ip), vehicle: saline
  survivor count: 0 of 6
dose: 100.0 mg/kg/injection, schedule: Q01DX009 (ip), vehicle: saline
  survivor count: 0 of 6
dose: 200.0 mg/kg/injection, schedule: Q01DX009 (ip), vehicle: saline
  survivor count: 0 of 6

## O=C(Nc1ccc(N(CCCl)CCCl)cc1)Oc1ccc(C(=O)O)cc1
dose: 25.0 mg/kg/injection, schedule: Q01DX009 (ip), vehicle: saline with Tween-80
  T/C: 133 % of control
dose: 50.0 mg/kg/injection, schedule: Q01DX009 (ip), vehicle: saline with Tween-80
  survivor count: 4 of 6
dose: 100.0 mg/kg/injection, schedule: Q01DX009 (ip), vehicle: saline with Tween-80
  survivor count: 0 of 6
dose: 200.0 mg/kg/injection, schedule: Q01DX009 (ip), vehicle: saline with Tween-80
  survivor count: 0 of 6

## COC(=N)CCSSCCC(=N)OC
dose: 200.0 mg/kg/injection, schedule: Q01DX009 (ip), vehicle: suspension in saline
  survivor count: 0 of 6
dose: 400.0 mg/kg/injection, schedule: Q01DX009 (ip), vehicle: suspension in saline
  survivor count: 0 of 6

## Cc1ccc(N(C)c2cc(=O)n(C)c(=O)[nH]2)cc1C
[1]
  survivor count: 4 of 5

## CCCC(Nc1nncs1)Nc1nncs1
[1]
  T/C: 131 % of control

## N#CCCOCN(COCCC#N)c1nc(N(COCCC#N)COCCC#N)nc(N(COCCC#N)COCCC#N)n1
dose: 30.0 mg/kg/injection, schedule: Q01DX005 (ip), vehicle: DMSO
  survivor count: 6 of 6
dose: 60.0 mg/kg/injection, schedule: Q01DX005 (ip), vehicle: DMSO
  survivor count: 5 of 6
dose: 120.0 mg/kg/injection, schedule: Q01DX005 (ip), vehicle: DMSO
  survivor count: 5 of 5

## COc1ccc(C2c3cc4c(cc3OC(C)(OC)C2C)OCO4)c(OC)c1OC (centres undefined)
dose: 400.0 mg/kg/injection, schedule: Q01DX001 (ip), vehicle: saline with Tween-80
  survivor count: 6 of 6

## O=[N+]([O-])c1cccc2c(-c3nccc4c([N+](=O)[O-])cccc34)nccc12
[1]
  survivor count: 4 of 5

## Cc1ccc2ccc3ccc(CBr)nc3c2n1
dose: 25.0 micromoles/kg, schedule: Q01DX005 (ip), vehicle: other
  survivor count: 1 of 6
